# Experimental data published in patent US9926576B2, “Prevention of bacterial growth in fermentation processes” (E. I. DU PONT DE NEMOURS AND COMPANY, priority 2007, dated 2018).
# Tested on: bacteria in fermentation system
# Assay: Batch fermentations at dry-grind ethanol plant, SCD treated vs antibiotic treated
# Settings: means of 16 antibiotic (0.0001%) and 15 SCD (final 0.041%) batch fermentations
substance,measurement,setting,value
Virginiamycin [Antibiotic],"Acetic Acid, %",22 Hours,0.02%
same,"Acetic Acid, %",36 Hours,0.03%
same,"Acetic Acid, %",10 hours,0.03%
same,"Acetic Acid, %",Drop (end of fermentation),0.05%
same,"Acetic Acid, %",Inoculant,0.02%
